Counter-ions that a name gives are not always drawn. Some of these results come from one statement about several compounds together.
Molecular target: T1, EP3 receptors (Homo sapiens, UniProt P43115)
T1 construct: expressed in transfected cells; host or cells: CHO-K1 cells, pCIN vector
T1 sequence (P43115 1-390): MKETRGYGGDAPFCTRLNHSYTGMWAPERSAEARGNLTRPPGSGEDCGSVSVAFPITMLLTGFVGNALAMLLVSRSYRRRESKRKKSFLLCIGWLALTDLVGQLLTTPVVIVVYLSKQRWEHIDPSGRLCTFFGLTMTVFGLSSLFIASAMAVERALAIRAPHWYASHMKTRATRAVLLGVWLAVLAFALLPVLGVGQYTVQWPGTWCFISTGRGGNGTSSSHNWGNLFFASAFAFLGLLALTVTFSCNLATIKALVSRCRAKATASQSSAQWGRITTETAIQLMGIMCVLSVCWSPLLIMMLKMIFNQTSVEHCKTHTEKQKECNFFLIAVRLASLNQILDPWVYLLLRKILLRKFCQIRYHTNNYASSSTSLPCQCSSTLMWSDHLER
Experiment: human EP3 calcium mobilisation assay (CHO-K1 cells, FLIPR, PGE2)
Type: cell-based
Settings: free bases or sodium salts; for functional pKi value, human EP3 calcium mobilisation assay: averages of a number of experiments

Compound | activity in a functional assay (human EP3 calcium mobilisation) | functional pKi value, human EP3 calcium mobilisation assay
Cl.Clc1ccc(OCc2ccccc2)c(Cc2nc(-c3nc4ccc(CN5CCCCC5)cc4[nH]3)co2)c1 [Example 172, 2-[2-({5-chloro-2-[(phenylmethyl)oxy]phenyl}-methyl)-1,3-oxazol-4-yl]-5-(1-piperidinylmethyl)-1H-benzimidazolehydrochloride] | no activity | < 6.5
Cl.Clc1ccc(OCc2ccccc2)c(Cc2nc(-c3nc4ccc(N5CCOCC5)cc4[nH]3)cs2)c1 [Example 149, 2-[2-({5-Chloro-2-[(phenylmethyl)oxy]phenyl}methyl)-1,3-thiazol-4-yl]-5-(4-morpholinyl)-1H-benzimidazole hydrochloride] | no activity | < 6.5
CC(C)COc1ccc(Cl)cc1Nc1nc(-c2nc3ccc(CN4CCCC4)cc3[nH]2)cs1 [Example 181, N-{5-Chloro-2-[(2-methylpropyl)oxy]phenyl)-4-[5-(1-pyrrolidinylmethyl)-1H-benzimidazol-2-yl]-1,3-thiazol-2-amine] | no activity | < 6.5
CC(C)COc1ccc(Cl)cc1Cc1nc(-c2nc3ccc(CCN4CCN(C)CC4)cc3[nH]2)cs1 [Example 117, 2-[2-({5-Chloro-2-[(2-methylpropyl)oxy]phenyl}-methyl)-1,3-thiazol-4-yl]-5-(2-(4-methyl-1-piperazinyl)ethyl]-1H-benzimidazole] | no activity | < 6.5
CC(C)(C)OC(=O)Nc1csc(Cc2cc(Cl)ccc2OCc2ccccc2)n1 [Example 110, 1,1-Dimethylethyl [2-({5-chloro-2-[(phenylmethyl)oxy]phenyl}methyl)-1,3-thiazol-4-yl]carbamate] | no activity | < 6.5
Cl.Clc1ccc(OCc2ccccc2)c(Cc2nc(-c3nc4cc5cn[nH]c5cc4[nH]3)cs2)c1 [Example 150, 6-[2-({5-Chloro-2-[(phenylmethyl)oxy]phenyl}methyl)-1,3-thiazol-4-yl]-1,5-dihydroimidazo[4,5-f]indazolehydrochloride] | – | < 6.5
CC(C)COc1ccc(Cl)cc1Cc1nc(-c2nnc[nH]2)cs1 [Example 157, 3-[2-({5-Chloro-2-[(2-methyl-propyl)oxy]-phenyl}methyl)-1,3-thiazol-4-yl]-1H-1,2,4-triazole] | no activity | < 6.5
CN1CCN(c2ccc3[nH]c(-c4csc(Cc5cc(Cl)ccc5OCc5ccccc5)n4)nc3n2)CC1.Cl [Example 151, 2-[2-({5-Chloro-2-[(phenylmethyl)oxy]phenyl}methyl)-1,3-thiazol-4-yl]-5-(4-methyl-1-piperazinyl)-1H-imidazo[4,5-b]pyridine hydrochloride] | no activity | < 6.5
CC(C)COc1ccc(Cl)cc1Nc1nc(-c2nc3ccc(CN(C)C)cc3[nH]2)cs1 [Example 180, N-{5-Chloro-2-[(2-methylpropyl)oxy]phenyl}-4-{5-[(dimethylamino)methyl]-1H-benzimidazol-2-yl}-1,3-thiazol-2-aminehydrochloride] | no activity | < 6.5
CC(C)COc1ccc(Cl)cc1Cc1nc(-c2nc3cnccc3[nH]2)cs1.Cl [Example 135, 2-[2-({5-Chloro-2-[(2-methyl-propyl)oxy]-phenyl}methyl)-1,3-thiazol-4-yl]-1H-imidazo[4,5-c]pyridinehydrochloride] | – | < 6.5
CC(C)COc1ccc(Cl)cc1Cc1nc(-c2nc3ccc(CCN4CCCCC4)cc3[nH]2)co1.Cl [Example 168, 2-[2-({5-chloro-2-[(2-methylpropyl)oxy]phenyl}methyl)-1,3-oxazol-4-yl]-5-[2-(1-piperidinyl)ethyl]-1H-benzimidazolehydrochloride] | no activity | < 6.5
CC(C)COc1ccc(Cl)cc1Cc1nc(-c2nc3ccc(N4CCOCC4)nc3[nH]2)cs1 [Example 144, 2-[2-({5-Chloro-2-[(2-methylpropyl)oxy]phenyl}methyl)-1,3-thiazol-4-yl]-5-(4-morpholinyl)-1H-imidazo[4,5-b]pyridine] | no activity | < 6.5
Cl.O=C(Nc1ccc(CN2CCOCC2)cc1)c1csc(Cc2cc(Cl)ccc2OCc2ccccc2)n1 [Example 120, 2-({5-Chloro-2-[(phenylmethyl)oxy]phenyl}-methyl)-N-[4-(4-morpholinylmethyl)phenyl]-1,3-thiazole-4-carboxamidehydrochloride] | no activity | < 6.5
Clc1ccc(OCc2ccccc2)c(Cc2nc(-c3nc4ncc(Br)cc4[nH]3)cs2)c1 [Example 134, 6-Bromo-2-[2-({5-chloro-2-[(phenylmethyl)oxy]phenyl}methyl)-1,3-thiazol-4-yl]-1H-imidazo[4,5-b]pyridine] | – | < 6.5
CN1CCN(Cc2ccc(C(=O)Nc3csc(Cc4cc(Cl)ccc4OCc4ccccc4)n3)cc2)CC1 [Example 114, N-[2-({5-chloro-2-[(phenylmethyl)oxy]-phenyl}methyl)-1,3-thiazol-4-yl]-4-[(4-methyl-1-piperazinyl)methyl]-benzamide] | no activity | < 6.5
CN1CCN(c2ccc3nc(-c4csc(Cc5cc(Cl)ccc5OCc5ccccc5)n4)[nH]c3c2)CC1.Cl [Example 148, 2-[2-({5-Chloro-2-[(phenylmethyl)oxy]phenyl}methyl)-1,3-thiazol-4-yl]-5-(4-methyl-1-piperazinyl)-1H-benzimidazole hydrochloride] | – | < 6.5
CC(C)COc1ccc(Cl)cc1Cc1nc(NC(=O)OC(C)(C)C)cs1 [Example 111, 1,1-Dimethylethyl [2-({5-chloro-2-[(2-methylpropyl)oxy]phenyl}methyl)-1,3-thiazol-4-yl]carbamate] | – | < 6.5
CC(C)COc1ccc(Cl)cc1Cc1nc(-c2nc3ccc(CCN4CCCC4)cc3[nH]2)co1.Cl [Example 169, 2-[2-({5-chloro-2-[(2-methylpropyl)oxy]phenyl}methyl)-1,3-oxazol-4-yl]-5-[2-(1-pyrrolidinyl)ethyl]-1H-benzimidazolehydrochloride] | no activity | < 6.5
CC(c1nc(C(=O)[O-])cs1)c1cc(Cl)ccc1OCc1ccccc1.[Na+] (centres unmarked) [Example 50] | no activity | < 6.5
O=C(NCc1ccccc1)c1csc(Cc2cc(Cl)ccc2OCc2ccccc2)n1 [Example 92, 2-({5-Chloro-2-[(phenylmethyl)oxy]phenyl}methyl)-N-(phenylmethyl)-1,3-thiazole-4-carboxamide] | no activity | < 6.5
